Structures are written as SMILES. The list shows a part of the results. Further columns of the screen follow, without active or inactive calls. Most of these compounds were active or inconclusive in the main read-out, so they are no random draw. The note in brackets gives the kind of curve behind each potency; many fits are weak.

67 compounds from PubChem BioAssay AID901 (National Center for Advancing Translational Sciences (NCATS), 2007) can be followed below.

The experiment can be described thus: qHTS Assay for Identifying the Cell-Membrane Permeable IMPase Inhibitors. As to conditions: CHO-M1 cells, IP1 accumulation, HTRF TR-FRET ratio; measured here: donor channel 620 nm AC50. A general note: qHTS replaces the single test concentration by a dilution series.
On to `C=C(C)Cn1c(CCNC(=O)CC)nc2ccccc21`, for which the concentration at half-maximal activity (AC50) (usually the midpoint of the concentration-response curve, whichever way the signal moves) is 0.794 µM [falling, full curve].
For `CCC(C)NS(=O)(=O)c1ccc(OCC(=O)NCc2cccnc2)cc1` (configuration not stated) the value was 3.16 µM [falling, single point]; for `COC(=O)c1cc(NCc2c(F)cccc2Cl)ccc1N1CCOCC1`, 31.6 µM [falling, single point]; for `CCOc1cc(/C=C2/N=C(c3ccc(C(C)(C)C)cc3)OC2=O)cc(Cl)c1OS(C)(=O)=O`, 0.01 µM [rising, full curve, poor fit].
With `CCC(C)C(=O)O[C@H]1C[C@@H](C)C=C2C=C[C@H](C)[C@H](CC[C@@H]3C[C@@H](O)CC(=O)O3)C21` (some centres not stated) the figure was 12.6 µM [rising, single point]; with `O=C(CSc1cnc2ccccc2n1)NC1CCCC1`, 12.6 µM [rising, partial curve].
Turning to `COc1ccccc1N(C(C)=O)c1nc(C)cc(C)c1C#N`, the AC50 is 1.58 µM [falling, partial curve].
Regarding `CCN(CC)S(=O)(=O)c1cccc(-c2nnc(SCC(N)=O)n2CCc2ccccc2)c1`, the AC50 was 5.01 µM [falling, single point].
As to `COc1ccccc1-c1cc(C(=O)Nc2ccc(F)cc2F)no1`, the AC50 was 3.98 µM [falling, partial curve, poor fit].
With `Cc1ccnc(N2CCC(C(=O)NCc3ccc4c(c3)OCO4)CC2)n1` the figure was 35.5 µM [falling, single point].
With `Cc1ccc(Nc2nc3c(c(=O)[nH]c(=O)n3C)n2Cc2ccc(F)cc2)cc1` the figure was 0.1 µM [falling, single point]; with `O=C(O)c1cc(S(=O)(=O)NCC2CCCO2)ccc1Cl` (configuration not stated), 0.1 µM [falling, full curve, poor fit]; with `CCCCc1ccc(NC(=O)N[C@H](C(=O)O)C(C)C)cc1`, 31.6 µM [falling, single point].
Regarding `CC(C)(C)OC(=O)N1CCC(C(=O)N2CCCCCC2)CC1`, the AC50 was 5.01 µM [falling, single point].
For `CCOC(=O)CNS(=O)(=O)c1ccc(C(=O)O)cc1` the value was 0.501 µM [rising, full curve, poor fit].
For `O=C(CSc1nnnn1C1CCCCC1)Nc1nc2c(s1)CCCC2`, the half-maximal activity concentration (AC50) was 3.98 µM [falling, full curve, poor fit].
Take `CN(C)c1nc(N(C)C)nc(N2CCCCC2)n1`: the concentration at half-maximal activity (AC50) is 0.02 µM [rising, full curve, poor fit].
On to `O=c1/c(=C/c2ccccn2)sc2nc3ccccc3n12`, for which the AC50 is 0.0631 µM [rising, single point].
With `S=c1[nH]nc(-c2ccccc2)o1` the figure was 12.6 µM [rising, partial curve]; with `COc1cc(-c2oc3ccc(C)cc3c(=O)c2O)cc(OC)c1OC`, 3.55 µM [falling, single point].
For `CC1(C)CC(=O)C(C(=S)Nc2ccccc2)=C(NCCN2CCOCC2)C1` the value was 31.6 µM [rising, single point]; for `Cc1cc(C(=O)N(C)C)sc1-c1ccccc1`, 1.26 µM [falling, full curve].
As for `O=C(Cn1ncc2c1-c1ccccc1OC2)N1CCN(c2ccccn2)CC1`, the AC50 is 0.126 µM [rising, single point].
`Cc1cccc(N2CCN(C(=O)Cn3cnc4c3c(=O)n(C)c(=O)n4C)CC2)c1C`: the AC50 is 0.158 µM [falling, full curve, poor fit].
With `Cc1cc(C)cc(N(CC(=O)NCc2ccco2)C(=O)CCC(=O)Nc2ccccn2)c1` the figure was 0.0398 µM [falling, full curve, poor fit]; with `CCCCNc1c2c3c(cccc3n(C)c1=O)C(=O)c1ccccc1-2`, 15.8 µM [rising, single point]; with `Cc1cccc(N(CC(=O)N2CCCC2)S(=O)(=O)c2ccccc2)c1C`, 28.2 µM [rising, single point].
In the case of `CC1SC(c2cccc(Cl)c2)NC1=O` (configuration not stated), the AC50 was 6.31 µM [falling, full curve, poor fit].
With `CCOC(=O)CSc1nc(-c2ccc3c(c2)OCO3)ccc1C#N` the figure was 10 µM [falling, partial curve, poor fit]; with `COc1ccccc1C(=O)NC(CCSC)C(=O)NCC(c1ccco1)N(C)C` (configuration not stated), 12.6 µM [falling, single point]; with `CCOC(=O)c1c(C)nc2c(c1C)c(=O)oc1ccccc12`, 0.501 µM [falling, single point].
`CCn1c(SCC(=O)N2CCCCC2)nc2c(c1=O)SC(C)C2` (configuration not stated): the AC50 is 0.00501 µM [falling, full curve].
For `CCCC(=O)Nc1ccc(NC(=O)c2ccccc2Cl)nc1` the value was 0.2 µM [falling, full curve]; for `CC(=O)C(Sc1nc(N2CCOCC2)nc(N2CCOCC2)n1)C(=O)Nc1ccccc1` (configuration not stated), 1.58 µM [rising, partial curve, poor fit].
Consider `COC(=O)CSc1cc(SCC(=O)OC)c(C#N)c(SCC(=O)OC)c1`, for which the AC50 was 0.0158 µM [falling, full curve, poor fit].
With `O=C(NCC(=O)N(c1cnc2ccccc2c1)C(C(=O)NC1CCCC1)c1ccncc1)c1ccco1` (configuration not stated) the figure was 31.6 µM [rising, single point].
Take `COCn1c(COc2ccc3ccccc3c2)nc2ccccc21`: the AC50 is 31.6 µM [falling, single point].
For the compound `COC(=O)c1ccc(NC(=O)CCN2CCCCC2)cc1`, the AC50 was 25.1 µM [falling, single point].
With `CCCOc1ccc2c(=O)c(-c3cc(C(=O)OC)oc3C)c(C)oc2c1`, the AC50 was 5.01 µM [falling, single point].
For `CCCC(NS(=O)(=O)c1ccc(OC)cc1)C(=O)O` (configuration not stated) the value was 0.0126 µM [rising, partial curve, poor fit]; for `COc1cc(S(=O)(=O)N(Cc2cccs2)CC2CCCO2)ccc1-n1cnnn1` (configuration not stated), 0.02 µM [falling, full curve]; for `CCN(CC)S(=O)(=O)c1ccc(OC)c(NC(=O)c2sc3ccccc3c2Cl)c1`, 0.224 µM [rising, full curve, poor fit].
For `Cc1nc2sc3c(c2c(=O)o1)CCCC3` the value was 3.98 µM [falling, single point]; for `CCOc1cc2oc(=O)c3c(c2cc1Cl)CCC3`, 31.6 µM [rising, single point].
For `CCC/C(=N\NC(=O)CNC(=O)/C=C/c1ccco1)c1ccccc1` the value was 15.8 µM [falling, single point]; for `O=C(CN1CCC(NC(=O)c2cccc(F)c2)CC1)NCc1ccccc1F`, 0.251 µM [falling, full curve, poor fit]; for `Cc1ccc(-n2ncc(C(=O)N3CCc4ccccc4C3)c2NC(=O)c2ccco2)cc1C`, 0.794 µM [falling, full curve].
Turning to `COc1ccc(OC)c(NC(=O)C23CCC(C)(C(=O)C2)C3(C)C)c1` (configuration not stated), the concentration at half-maximal activity (AC50) is 11.2 µM [falling, partial curve, poor fit].
For `CC(=O)Nc1ccc(S(=O)(=O)CCC#N)cc1` the value was 0.0794 µM [rising, partial curve, poor fit]; for `CCc1nnc(NC(=O)c2cccc(NC(=O)C(C)C)c2)s1`, 2.51 µM [rising, partial curve, poor fit].
With `COc1ccc(CNC(=O)CSc2nnnn2Cc2ccccc2)cc1` the figure was 1.26 µM [falling, partial curve]; with `O=c1cc(-c2ccc(O)cc2)oc2cc(O)cc(O)c12`, 3.98 µM [falling, partial curve].
With `Fc1ccc(CNc2nc3ccccc3n3nnnc23)cc1` the figure was 31.6 µM [rising, single point].
Regarding `O=C(NNC1=C(C(=O)C(F)(F)F)CCC1)c1cccc(O)c1`, the concentration at half-maximal activity (AC50) was 0.2 µM [rising, single point].
With `CCOC(=O)c1cccc(NC(=O)CSc2nnc(CNc3ccc(C)cc3)n2CC)c1` the figure was 0.0224 µM [falling, full curve, poor fit].
For `CCc1ccc(-n2c(SCc3c(C)noc3C)nnc2-c2ccncc2)cc1` the value was 0.126 µM [falling, full curve, poor fit].
Turning to `CC(=O)C(N=Nc1ccccc1)(Sc1nnc(-c2ccccc2)n1-c1ccccc1)C(C)=O`, the AC50 was 10 µM [falling, partial curve].
Take `c1csc(-c2nn[nH]n2)c1`: the AC50 was 31.6 µM [falling, single point].
With `COc1ccc(CCNC(=O)COc2ncnc3cc([N+](=O)[O-])ccc23)cc1` the figure was 0.0158 µM [falling, full curve].
In the case of `O=C(Nc1ccc2c(c1)OCCO2)C1CCCN1S(=O)(=O)c1ccc(Cl)cc1` (configuration not stated), the AC50 was 0.794 µM [falling, partial curve].
Consider `Cc1sc(NC(=O)CSc2ncn(-c3ccccc3)n2)nc1-c1ccccc1`, for which the concentration at half-maximal activity (AC50) was 3.16 µM [falling, partial curve].
Take `COc1ccc(Cl)cc1NC(=O)NCCCl`: the AC50 was 31.6 µM [rising, single point].
On to `COc1cc(CO)ccc1Oc1nnnn1-c1ccc(C(N)=O)cc1`, for which the AC50 was 0.158 µM [falling, full curve, poor fit].
For `O=C1c2ccccc2C(=O)N1CC(=O)N1c2ccccc2Sc2ccc(C(F)(F)F)cc21` the value was 5.01 µM [rising, single point].
With `CC(=O)n1nc(-c2cccnc2)nc1N` the figure was 0.0126 µM [rising, full curve, poor fit]; with `Nn1c(SCC(=O)Nc2ccc3c(c2)OCO3)nnc1-c1ccncc1`, 0.02 µM [falling, full curve, poor fit]; with `O=c1cc(-c2ccccc2)oc2cc(O[C@@H]3O[C@H](CO)[C@@H](O)[C@H](O)[C@H]3O)c(O)c(O)c12`, 12.6 µM [falling, partial curve].
